Data source: PubChem BioAssay AID1259308 (NCATS, 2017)

Purpose: 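Knock-downs that increase output of a recombinant reporter protein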 (primary screen)
Cells: human HEK293 embryonic kidney cells stably expressing firefly luciferase (HEK-CMV-Luc2-Hygro)
Reagent: single siRNA against human genes, 0.8 pmol siRNA per well
Duration: 72 h
Measured: 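Luciferase light (ONE-Glo) measured on one replicate plate set and viability (CellTiter-Glo) on the other, scaled to a negative control siRNA, with robust z-scores and luciferase per cell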
Scale: total luciferase, z-score and total luciferase, % of control: higher = more reporter protein produced; luciferase per cell, z-score: higher = more reporter output per viable cell
Rule for the call: 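An siRNA counts as active if its total luciferase robust z-score exceeds 3; genes with two or more such siRNAs out of three were retested with fresh siRNAs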
Calls: active = raised luciferase; inactive = no rise
The deposit covers about 59,000 reagents; below is a random part of them. About 1,510 of all reagents (2.6%) count as active. 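Calls use total luciferase alone and ignore viability, so some active siRNAs may act by altering cell number.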 The numbers tell different reagents against one gene apart. Not all columns of the deposit are shown.

total luciferase, z-score	total luciferase, % of control	luciferase per cell, z-score	call	target	siRNA no.
0.209	86	0.317	inactive	PHOX2B	1
-0.161	78.7	0.498	inactive	PHOX2B	2
0.569	93.2	-0.242	inactive	PHOX2B	3
-0.117	79.6	-0.474	inactive	MGAT4C	1
-0.326	75.4	-0.668	inactive	MGAT4C	2
-0.205	77.8	-0.675	inactive	MGAT4C	3
-0.0153	81.6	-0.612	inactive	CD55	1
-0.889	64.2	-0.956	inactive	CD55	2
-0.196	78	0.118	inactive	CD55	3
0.486	91.5	0.243	inactive	TMEM131L	1
-0.188	78.1	-0.315	inactive	TMEM131L	2
0.0681	83.2	0.137	inactive	TMEM131L	3
1.03	102	0.983	inactive	AASS	1
-1.38	54.5	-1.34	inactive	AASS	2
0.907	99.9	0.911	inactive	AASS	3
-0.287	76.2	-0.136	inactive	NRIP1	1
0.603	93.9	1.76	inactive	NRIP1	2
0.618	94.2	0.421	inactive	NRIP1	3
-0.384	74.2	-0.0908	inactive	TSPAN1	1
0.975	101	0.499	inactive	TSPAN1	2
0.596	93.7	0.343	inactive	TSPAN1	3
-1.04	61.2	-0.998	inactive	RRAGD	1
-0.622	69.5	-0.592	inactive	RRAGD	2
0.59	93.6	0.714	inactive	RRAGD	3
1.32	108	0.735	inactive	TMEM41A	1
0.431	90.5	-0.293	inactive	TMEM41A	2
1.08	103	0.646	inactive	TMEM41A	3
0.662	95.1	-0.32	inactive	HTRA1	1
1.46	111	1.2	inactive	HTRA1	2
-0.3	75.9	-0.785	inactive	HTRA1	3
2.08	123	1.76	inactive	C6orf58	1
0.0924	83.7	0.178	inactive	C6orf58	2
-0.888	64.2	-1.13	inactive	C6orf58	3
-0.0134	81.6	-0.541	inactive	SND1-IT1	1
-1.52	51.6	-1.37	inactive	SND1-IT1	2
1.37	109	1.49	inactive	SND1-IT1	3
-0.707	67.8	-1.14	inactive	GMPS	1
3.27	147	2.07	active	GMPS	2
-0.449	73	0.211	inactive	GMPS	3
